Values from PubChem BioAssay AID1259254 (NCATS, 2017)
Purpose: 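Gene knock-downs that lead to re-replication, shown by excess G2 DNA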 (primary screen). Cells: human HCT116 colorectal cancer cells. Reagents: single siRNA against human genes. Timing: 3 days. Measurement: 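Nuclei stained with Hoechst and imaged; cell-cycle phase assigned by DNA content; G2 share scaled per plate, non-targeting siRNA 0%, GMNN siRNA 100%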. Direction: G2 robust z-score and G2 cells, % of GMNN control: higher = more G2 cells, more excess DNA replication. Rule for the call: 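Active siRNAs have a G2 robust z of 5 or more median absolute deviations over the median, which in these data means about 38% or higher of GMNN control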.
The deposit covers about 59,000 reagents; shown is a part drawn at random. About 1,550 of all reagents (2.6%) count as active. 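G2 share is only a proxy for re-replication; each gene was hit by three separate siRNAs, and active genes were retested.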 Entries without a mark were called inactive. The numbers tell different reagents against one gene apart. Further read-outs or replicates are left out here. The record does not give: the amount of reagent.

{"target": "ARHGEF15", "reagent no.": 1, "G2 robust z-score": 1.79, "G2 cells, % of GMNN control": 15.6}
{"target": "ARHGEF15", "reagent no.": 2, "G2 robust z-score": 0.687, "G2 cells, % of GMNN control": 7.8}
{"target": "ARHGEF15", "reagent no.": 3, "G2 robust z-score": 1.54, "G2 cells, % of GMNN control": 13.8}
{"target": "POP5", "reagent no.": 1, "G2 robust z-score": -1.33, "G2 cells, % of GMNN control": -6.36}
{"target": "POP5", "reagent no.": 2, "G2 robust z-score": -0.867, "G2 cells, % of GMNN control": -3.13}
{"target": "POP5", "reagent no.": 3, "G2 robust z-score": 0.214, "G2 cells, % of GMNN control": 4.47}
{"target": "WNT6", "reagent no.": 1, "G2 robust z-score": -0.911, "G2 cells, % of GMNN control": -3.44}
{"target": "WNT6", "reagent no.": 2, "G2 robust z-score": -0.891, "G2 cells, % of GMNN control": -3.3}
{"target": "WNT6", "reagent no.": 3, "G2 robust z-score": -0.00708, "G2 cells, % of GMNN control": 2.92}
{"target": "LINC01829", "reagent no.": 1, "G2 robust z-score": 0.256, "G2 cells, % of GMNN control": 4.77}
{"target": "LINC01829", "reagent no.": 2, "G2 robust z-score": 0.702, "G2 cells, % of GMNN control": 7.9}
{"target": "LINC01829", "reagent no.": 3, "G2 robust z-score": -0.503, "G2 cells, % of GMNN control": -0.574}
{"target": "TBC1D28", "reagent no.": 1, "G2 robust z-score": -0.927, "G2 cells, % of GMNN control": -3.56}
{"target": "TBC1D28", "reagent no.": 2, "G2 robust z-score": 0.249, "G2 cells, % of GMNN control": 4.72}
{"target": "TBC1D28", "reagent no.": 3, "G2 robust z-score": -0.539, "G2 cells, % of GMNN control": -0.827}
{"target": "LMO4", "reagent no.": 1, "G2 robust z-score": -1.38, "G2 cells, % of GMNN control": -6.75}
{"target": "LMO4", "reagent no.": 2, "G2 robust z-score": 1.76, "G2 cells, % of GMNN control": 15.3}
{"target": "LMO4", "reagent no.": 3, "G2 robust z-score": 0.267, "G2 cells, % of GMNN control": 4.85}
{"target": "PRDM11", "reagent no.": 1, "G2 robust z-score": 0.601, "G2 cells, % of GMNN control": 7.2}
{"target": "PRDM11", "reagent no.": 2, "G2 robust z-score": 2.31, "G2 cells, % of GMNN control": 19.2}
{"target": "PRDM11", "reagent no.": 3, "G2 robust z-score": 0.507, "G2 cells, % of GMNN control": 6.53}
{"target": "COQ10A", "reagent no.": 1, "G2 robust z-score": -0.986, "G2 cells, % of GMNN control": -3.97}
{"target": "COQ10A", "reagent no.": 2, "G2 robust z-score": 0.386, "G2 cells, % of GMNN control": 5.68}
{"target": "COQ10A", "reagent no.": 3, "G2 robust z-score": 3.82, "G2 cells, % of GMNN control": 29.8}

Records listed so far whose gene name starts with W or w (3):
{"target": "WNT6", "reagent no.": 1, "G2 robust z-score": -0.911, "G2 cells, % of GMNN control": -3.44}
{"target": "WNT6", "reagent no.": 2, "G2 robust z-score": -0.891, "G2 cells, % of GMNN control": -3.3}
{"target": "WNT6", "reagent no.": 3, "G2 robust z-score": -0.00708, "G2 cells, % of GMNN control": 2.92}
